{"source": "patent US9464097B2", "about": "“Gold complexes” (UNIVERSITY COURT OF THE UNIVERSITY OF ST. ANDREWS, priority 2010, dated 2016)", "test_system": "MDA MB231 (breast carcinoma) cell line", "experiment": "Cytotoxicity assay (CCK-8 viability), MDA MB231", "format": "cell-based, human", "details": "MDA MB231, 3 days incubation", "protocol": "Cytotoxicity assay: The compound/complex was dissolved in DMSO and diluted in DMSO. The final dilution was in the respective culture medium and the final concentration of DMSO was always below 0.01%. Cells were pipetted into microtitre plates (NUNC) at 4000 cells/well and incubated at 37° C. in 5% CO2 in air for 24 hr. Varying concentrations of the compounds/complexes were applied to the cells in 10 μl volumes. The plates were incubated for 3 days at 37° C. 5% CO2 in air. The viability of the cells was measured using the Dojindo kit CCK-8 (Cell counting Kit—8, Dojindo technologies USA, CK04-11) method after incubation for 3 hr in the absence of light. The plates were read on an ELISA plate reader at a wavelength of 450 nm.", "data": [{"smiles": "N.N.[Cl][Pt][Cl]", "note": "[cisplatin]", "values": [{"measurement": "IC50", "result": 28, "unit": "µM"}]}]}
